# Experimental data taken from the supplement of paper PMC12462457.
# ± gives the standard deviation of the averaged measurements. The list shows a part of the results. This data set is noisy: repeats of one test often differ as much as different tests do.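 Cell counts came from imaging DAPI-stained nuclei, excluding as dead any cells lacking phalloidin-stained cytoplasm. Counts per well were normalized to the median vehicle-well count on that plate, and the values were averaged over two replicate plates.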
# Test system: OVCAR8
# Assay: cell count relative to DMSO vehicle (fold change); higher = more surviving senescent cells (less killing)
# Conditions: senescence inducer: cisplatin 10 µM 48 h, then 6 d recovery (CP senescent), exposure time 24 h
SMILES,cell count (compound dose 1 µM),cell count (compound dose 5 µM)
Cc1ccc(NC(=O)c2cccc(C(C)(C)C#N)c2)cc1Nc1ccc2ncn(C)c(=O)c2c1,0.781 ± 0.044,0.928 ± 0.07
OCCN(CCO)c1nc(N2CCCCC2)c2nc(N(CCO)CCO)nc(N3CCCCC3)c2n1,0.974 ± 0.23,0.891 ± 0.054
COc1cccc(Nc2nc(NCC3CCCO3)c3ccccc3n2)c1 (centres undefined),1.24 ± 0.16,0.749 ± 0.22
Clc1ccc(C(c2c[nH]c3ccccc23)c2c[nH]c3ccccc23)cc1,1.16 ± 0.12,1.14 ± 0.11
CC(=O)N(Cc1ccc(F)cc1)C1=C(NCc2ccccc2)C(=O)c2ccccc2C1=O,1.02 ± 0.16,1.07 ± 0.16
Cc1ccc(F)c(NC(=O)Nc2ccc(-c3cccc4[nH]nc(N)c34)cc2)c1 [Linifanib (ABT-869)],1.22 ± 0.24,0.908 ± 0.012
O=C(O)c1ccccc1O,1.29 ± 0.15,1.29 ± 0.098
CCN1CCN(C(c2ccc(C(F)(F)F)cc2)c2ccc3cccnc3c2O)CC1 (centres undefined),1.19 ± 0.18,1.093 ± 0.005
Cc1c(-c2c(-c3ccc(F)o3)sc3ncnc(O[C@H](Cc4ccccc4OCc4ccnn4CC(F)(F)F)C(=O)O)c23)ccc(OCCN2CCN(C)CC2)c1Cl,0.883,0.957 ± 0.014
O=C(O)c1cc(/N=N/c2ccc(S(=O)(=O)Nc3ccccn3)cc2)ccc1O,1.15 ± 0.05,0.809 ± 0.13
COc1ccc(C2=N[C@@H](c3ccc(Cl)cc3)[C@@H](c3ccc(Cl)cc3)N2C(=O)N2CCNC(=O)C2)c(OC(C)C)c1 [Nutlin-3a],1.08 ± 0.24,0.694 ± 0.099
CNC(=O)c1ccc2c(c1)ncn2-c1ccc(CC(=O)OC(C)(C)C)cc1,1.02 ± 0.085,0.906 ± 0.016
NC(=O)c1ccc(-c2nc(-c3ccccn3)c(-c3ccc4c(c3)OCO4)[nH]2)cc1,0.819 ± 0.012,0.474 ± 0.18
CC(C)(C)c1ccc(S(=O)(=O)/C=C/C#N)cc1,0.87 ± 0.11,0.233 ± 0.098
COc1ccc2cc(C(C)C(=O)Oc3ccc(C(N)=S)cc3)ccc2c1 (centres undefined),1.15 ± 0.16,1.26 ± 0.061
COc1ccc(-c2nc(-c3cc(C(F)(F)F)cc(C(F)(F)F)c3)n(Cc3ccc(C(N)=O)cc3)c2-c2ccc(OC)cc2)cc1 [Apoptozole],0.853 ± 0.0014,0.694 ± 0.17

# Three entries already listed, sorted by molar mass, high to low.
SMILES,cell count (compound dose 1 µM),cell count (compound dose 5 µM)
Cc1c(-c2c(-c3ccc(F)o3)sc3ncnc(O[C@H](Cc4ccccc4OCc4ccnn4CC(F)(F)F)C(=O)O)c23)ccc(OCCN2CCN(C)CC2)c1Cl,0.883,0.957 ± 0.014
Cc1ccc(F)c(NC(=O)Nc2ccc(-c3cccc4[nH]nc(N)c34)cc2)c1 [Linifanib (ABT-869)],1.22 ± 0.24,0.908 ± 0.012
O=C(O)c1ccccc1O,1.29 ± 0.15,1.29 ± 0.098

# Remaining list, next part

SMILES,cell count (compound dose 1 µM),cell count (compound dose 5 µM)
Cc1ccc2ccc(C(Nc3ccccc3)c3ccccc3)c(O)c2n1 (centres undefined),1.07 ± 0.19,1.2 ± 0.21
C[C@H]1[C@H](C)CC[C@]2(C(=O)O[C@@H]3O[C@H](CO[C@@H]4O[C@H](CO)[C@@H](O[C@@H]5O[C@H](C)[C@H](O)[C@@H](O)[C@H]5O)[C@H](O)[C@H]4O)[C@@H](O)[C@H](O)[C@H]3O)CC[C@]3(C)C(=CC[C@@H]4[C@@]5(C)C[C@@H](O)[C@H](O)[C@@](C)(CO)[C@@H]5CC[C@]43C)[C@H]12 [Asiaticoside],1.14 ± 0.12,1.18 ± 0.056
CCOC(=O)[C@@H](N)CCC(=O)N[C@@H](CSCc1ccccc1)C(=O)N[C@@H](C(=O)OCC)c1ccccc1 [Ezatiostat],1.27 ± 0.06,1.173 ± 0.0042
Cn1cc(/C=C2\C(=O)Nc3cccnc32)c2ccccc21,1.2 ± 0.18,1.44 ± 0.2
Cc1sc2c(c1C)C(c1ccc(Cl)cc1)=N[C@@H](CC(=O)NCCCCCCCCNC(=O)COc1cccc3c1C(=O)N(C1CCC(=O)NC1=O)C3=O)c1nnc(C)n1-2 (some centres undefined),0.761 ± 0.086,0.667 ± 0.13
CC(=O)N[C@@H](C)C(=O)N[C@@H](CO)C(=O)NC(C)(C)C(=O)N[C@@H](CC(C)C)C(=O)N[C@@H](CCCN=C(N)N)C(=O)N[C@@H](CCCCN)C(=O)N[C@@H](CC(C)C)C(=O)NC(C)(C)C(=O)N[C@@H](CCCCN)C(=O)N[C@@H](CCCN=C(N)N)C(=O)N[C@@H](CC(C)C)C(=O)N[C@@H](CC(C)C)C(N)=O,1.33 ± 0.037,0.578 ± 0.088
CCC[C@H](N[C@H]1CCc2cc(F)cc(F)c2C1)C(=O)Nc1cn(C(C)(C)CNCC(C)(C)C)cn1 [Nirogacestat],0.914 ± 0.088,0.8065 ± 0.0078
CN1C(=O)C(Cc2c[nH]c3ccccc23)NC1=S (centres undefined) [Necrostatin-1],1.36 ± 0.15,1.18 ± 0.073
Cc1cc2c(s1)Nc1ccccc1N=C2N1CCN(C)CC1,1.16 ± 0.13,0.569 ± 0.35
CCN(CC)CCOc1ccc(Nc2ncc3cc(-c4c(Cl)cccc4Cl)c(=O)n(C)c3n2)cc1,0.097 ± 0.033,0.132 ± 0.012
COc1c(/C=C/C(=O)c2ccc(O)c(CC=C(C)C)c2)ccc(O)c1O [Licochalcone D],1.04 ± 0.016,0.669 ± 0.038
Nc1ccc(-c2ccc3ncc4ccc(=O)n(-c5cccc(C(F)(F)F)c5)c4c3c2)cn1 [Torin 2],0.291 ± 0.032,0.291 ± 0.024
CC(C)C[C@H](NC(=O)[C@H](Cc1ccccc1)C[C@@H](O)[C@H](Cc1ccccc1)NC(=O)OC(C)(C)C)C(=O)N[C@@H](Cc1ccccc1)C(N)=O,1.15 ± 0.063,0.846 ± 0.095
CC[C@H](CC#N)OC(=O)N[C@@H](C)c1cccc(NC(=O)Nc2ccc(-c3cnco3)c(OC)c2)c1,0.845 ± 0.17,0.86 ± 0.15
CN1CCC(Nc2nc(Nc3ccc(Oc4ccccc4)cc3)c3c(=O)[nH]cc(Br)c3n2)CC1,1.24 ± 0.15,0.0455 ± 0.036
CC(=O)O[C@H]1C(=O)[C@@]2(C)[C@H]([C@H](OC(=O)c3ccccc3)[C@]3(O)C[C@H](OC(=O)[C@H](O)[C@@H](NC(=O)c4ccccc4)c4ccccc4)C(C)=C1C3(C)C)[C@]1(OC(C)=O)CO[C@@H]1C[C@@H]2O,0.761 ± 0.039,0.633 ± 0.18
